Test results: the supplement of paper PMC12819154, “High-throughput peptide-centric local stability assay extends protein–ligand identification to membrane proteins, tissues and bacteria” (Nature Structural & Molecular Biology, 2025)
The other results are listed elsewhere or left out. Small differences around the control level are noise.

Sequences of proteins named here, by UniProt entry; tags and fusion partners are left off. A change or cut given only in a name is not applied to a line headed by its entry.
UniProt Q7Z4I7: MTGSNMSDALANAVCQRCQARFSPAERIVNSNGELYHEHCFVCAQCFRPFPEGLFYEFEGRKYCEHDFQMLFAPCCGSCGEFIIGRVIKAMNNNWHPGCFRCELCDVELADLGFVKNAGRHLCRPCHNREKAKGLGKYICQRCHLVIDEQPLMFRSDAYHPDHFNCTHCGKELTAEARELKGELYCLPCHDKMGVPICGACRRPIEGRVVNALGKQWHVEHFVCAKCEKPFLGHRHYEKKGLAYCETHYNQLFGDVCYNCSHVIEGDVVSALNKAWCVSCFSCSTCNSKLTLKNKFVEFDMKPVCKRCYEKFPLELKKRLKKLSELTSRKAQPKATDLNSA
UniProt Q7Z5W3: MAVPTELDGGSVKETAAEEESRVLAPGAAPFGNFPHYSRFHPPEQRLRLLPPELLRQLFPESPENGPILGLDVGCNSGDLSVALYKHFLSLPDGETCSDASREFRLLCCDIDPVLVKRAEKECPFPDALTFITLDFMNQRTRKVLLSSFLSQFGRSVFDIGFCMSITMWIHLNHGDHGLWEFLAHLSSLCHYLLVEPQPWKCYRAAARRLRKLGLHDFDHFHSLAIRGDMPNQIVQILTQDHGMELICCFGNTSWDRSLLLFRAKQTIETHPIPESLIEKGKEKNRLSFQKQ
UniProt Q6ZN55: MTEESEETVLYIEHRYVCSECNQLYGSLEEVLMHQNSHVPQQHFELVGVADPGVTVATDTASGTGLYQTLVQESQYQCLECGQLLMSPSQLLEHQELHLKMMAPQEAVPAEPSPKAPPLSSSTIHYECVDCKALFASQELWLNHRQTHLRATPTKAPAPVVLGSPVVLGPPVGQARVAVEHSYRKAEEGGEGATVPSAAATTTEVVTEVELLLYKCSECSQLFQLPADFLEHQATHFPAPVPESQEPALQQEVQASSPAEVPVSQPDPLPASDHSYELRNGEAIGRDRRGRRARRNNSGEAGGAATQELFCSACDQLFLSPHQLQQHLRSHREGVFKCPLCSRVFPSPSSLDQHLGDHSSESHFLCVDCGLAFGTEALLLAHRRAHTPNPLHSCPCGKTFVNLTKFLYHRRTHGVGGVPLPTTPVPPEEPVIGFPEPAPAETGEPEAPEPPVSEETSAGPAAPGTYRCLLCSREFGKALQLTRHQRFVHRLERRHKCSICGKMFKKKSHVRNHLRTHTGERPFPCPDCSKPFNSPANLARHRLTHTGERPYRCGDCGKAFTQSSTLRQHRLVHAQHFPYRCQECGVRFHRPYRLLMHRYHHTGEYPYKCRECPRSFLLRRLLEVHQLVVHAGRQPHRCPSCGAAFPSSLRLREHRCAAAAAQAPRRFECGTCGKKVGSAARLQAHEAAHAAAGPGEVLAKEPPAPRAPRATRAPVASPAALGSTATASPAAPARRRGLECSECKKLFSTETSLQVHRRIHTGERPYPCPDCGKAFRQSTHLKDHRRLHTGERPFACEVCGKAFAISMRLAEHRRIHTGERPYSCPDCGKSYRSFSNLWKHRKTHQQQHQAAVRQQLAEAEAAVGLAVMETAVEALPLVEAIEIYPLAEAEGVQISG
UniProt Q7L8L6: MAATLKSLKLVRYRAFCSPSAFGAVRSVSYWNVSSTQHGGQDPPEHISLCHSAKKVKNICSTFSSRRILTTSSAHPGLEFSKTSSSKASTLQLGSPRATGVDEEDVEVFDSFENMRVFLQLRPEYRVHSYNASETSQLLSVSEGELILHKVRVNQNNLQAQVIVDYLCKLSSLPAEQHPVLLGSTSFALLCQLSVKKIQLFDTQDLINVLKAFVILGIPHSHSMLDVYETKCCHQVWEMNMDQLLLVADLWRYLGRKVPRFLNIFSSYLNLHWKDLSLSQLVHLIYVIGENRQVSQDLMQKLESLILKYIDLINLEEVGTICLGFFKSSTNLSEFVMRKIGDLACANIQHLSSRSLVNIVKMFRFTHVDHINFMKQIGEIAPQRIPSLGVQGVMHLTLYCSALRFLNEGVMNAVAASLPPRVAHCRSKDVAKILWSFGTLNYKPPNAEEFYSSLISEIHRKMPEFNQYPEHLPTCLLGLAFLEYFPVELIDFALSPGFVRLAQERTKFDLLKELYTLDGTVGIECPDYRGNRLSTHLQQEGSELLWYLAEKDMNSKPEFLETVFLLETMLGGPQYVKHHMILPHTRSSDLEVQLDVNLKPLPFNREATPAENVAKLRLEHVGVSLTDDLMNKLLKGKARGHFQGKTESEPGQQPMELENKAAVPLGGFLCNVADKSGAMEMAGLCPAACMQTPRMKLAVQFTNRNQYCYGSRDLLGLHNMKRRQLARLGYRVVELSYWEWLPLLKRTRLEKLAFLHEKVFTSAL
UniProt Q7Z5Y7: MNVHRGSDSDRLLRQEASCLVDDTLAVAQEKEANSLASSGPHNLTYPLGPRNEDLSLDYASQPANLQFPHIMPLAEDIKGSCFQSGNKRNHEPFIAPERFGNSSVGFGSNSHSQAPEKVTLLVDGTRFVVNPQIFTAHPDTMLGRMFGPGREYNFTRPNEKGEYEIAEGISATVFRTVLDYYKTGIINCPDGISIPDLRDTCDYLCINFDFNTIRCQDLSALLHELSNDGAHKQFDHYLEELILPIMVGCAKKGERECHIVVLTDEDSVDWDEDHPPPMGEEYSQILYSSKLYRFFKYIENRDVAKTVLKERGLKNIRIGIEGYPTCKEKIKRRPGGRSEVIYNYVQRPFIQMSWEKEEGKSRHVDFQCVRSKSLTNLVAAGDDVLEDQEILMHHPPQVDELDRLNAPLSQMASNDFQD
UniProt Q7LG56, whole entry: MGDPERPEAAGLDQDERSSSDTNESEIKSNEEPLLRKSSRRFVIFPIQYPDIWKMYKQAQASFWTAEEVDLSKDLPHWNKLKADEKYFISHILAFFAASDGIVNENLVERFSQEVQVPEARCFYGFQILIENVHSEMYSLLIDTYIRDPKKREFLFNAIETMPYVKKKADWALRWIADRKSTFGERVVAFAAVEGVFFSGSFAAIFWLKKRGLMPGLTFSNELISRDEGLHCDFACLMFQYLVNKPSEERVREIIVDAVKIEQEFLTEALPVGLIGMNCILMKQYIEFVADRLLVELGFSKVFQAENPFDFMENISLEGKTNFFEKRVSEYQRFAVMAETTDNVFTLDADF
UniProt Q7L3T8: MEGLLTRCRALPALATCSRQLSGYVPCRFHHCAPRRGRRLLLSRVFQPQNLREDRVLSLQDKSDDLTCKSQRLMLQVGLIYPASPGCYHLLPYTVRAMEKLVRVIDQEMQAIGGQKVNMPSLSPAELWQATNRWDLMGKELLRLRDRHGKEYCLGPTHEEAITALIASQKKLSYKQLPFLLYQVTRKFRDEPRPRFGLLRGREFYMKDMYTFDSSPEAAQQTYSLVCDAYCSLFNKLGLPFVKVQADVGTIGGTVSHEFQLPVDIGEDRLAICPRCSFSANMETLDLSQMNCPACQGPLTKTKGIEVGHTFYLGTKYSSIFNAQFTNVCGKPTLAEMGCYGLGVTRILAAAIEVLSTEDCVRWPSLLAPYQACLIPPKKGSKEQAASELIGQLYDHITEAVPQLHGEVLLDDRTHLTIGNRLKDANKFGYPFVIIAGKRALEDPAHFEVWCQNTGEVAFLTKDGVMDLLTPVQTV
UniProt Q6ZW76: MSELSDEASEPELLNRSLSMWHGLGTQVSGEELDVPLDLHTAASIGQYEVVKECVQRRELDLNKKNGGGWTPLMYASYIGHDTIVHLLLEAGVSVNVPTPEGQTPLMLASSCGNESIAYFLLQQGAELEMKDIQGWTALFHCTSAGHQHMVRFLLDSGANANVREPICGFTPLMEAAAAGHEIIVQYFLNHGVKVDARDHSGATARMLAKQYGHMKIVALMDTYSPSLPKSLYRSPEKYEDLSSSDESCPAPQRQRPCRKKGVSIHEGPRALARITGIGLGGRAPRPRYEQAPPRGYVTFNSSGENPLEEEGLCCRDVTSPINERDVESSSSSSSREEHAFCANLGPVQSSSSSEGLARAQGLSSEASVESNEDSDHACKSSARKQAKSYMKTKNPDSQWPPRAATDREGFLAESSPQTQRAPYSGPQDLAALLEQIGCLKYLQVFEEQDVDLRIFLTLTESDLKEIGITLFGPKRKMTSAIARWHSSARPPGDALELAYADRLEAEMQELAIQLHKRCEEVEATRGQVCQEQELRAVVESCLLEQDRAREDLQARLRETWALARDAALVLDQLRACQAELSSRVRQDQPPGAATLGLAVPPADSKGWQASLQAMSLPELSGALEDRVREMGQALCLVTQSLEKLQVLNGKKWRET
UniProt Q7Z4G1, whole entry: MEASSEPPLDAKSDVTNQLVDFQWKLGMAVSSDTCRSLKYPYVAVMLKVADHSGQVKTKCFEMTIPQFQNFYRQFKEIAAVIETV
UniProt Q7Z478: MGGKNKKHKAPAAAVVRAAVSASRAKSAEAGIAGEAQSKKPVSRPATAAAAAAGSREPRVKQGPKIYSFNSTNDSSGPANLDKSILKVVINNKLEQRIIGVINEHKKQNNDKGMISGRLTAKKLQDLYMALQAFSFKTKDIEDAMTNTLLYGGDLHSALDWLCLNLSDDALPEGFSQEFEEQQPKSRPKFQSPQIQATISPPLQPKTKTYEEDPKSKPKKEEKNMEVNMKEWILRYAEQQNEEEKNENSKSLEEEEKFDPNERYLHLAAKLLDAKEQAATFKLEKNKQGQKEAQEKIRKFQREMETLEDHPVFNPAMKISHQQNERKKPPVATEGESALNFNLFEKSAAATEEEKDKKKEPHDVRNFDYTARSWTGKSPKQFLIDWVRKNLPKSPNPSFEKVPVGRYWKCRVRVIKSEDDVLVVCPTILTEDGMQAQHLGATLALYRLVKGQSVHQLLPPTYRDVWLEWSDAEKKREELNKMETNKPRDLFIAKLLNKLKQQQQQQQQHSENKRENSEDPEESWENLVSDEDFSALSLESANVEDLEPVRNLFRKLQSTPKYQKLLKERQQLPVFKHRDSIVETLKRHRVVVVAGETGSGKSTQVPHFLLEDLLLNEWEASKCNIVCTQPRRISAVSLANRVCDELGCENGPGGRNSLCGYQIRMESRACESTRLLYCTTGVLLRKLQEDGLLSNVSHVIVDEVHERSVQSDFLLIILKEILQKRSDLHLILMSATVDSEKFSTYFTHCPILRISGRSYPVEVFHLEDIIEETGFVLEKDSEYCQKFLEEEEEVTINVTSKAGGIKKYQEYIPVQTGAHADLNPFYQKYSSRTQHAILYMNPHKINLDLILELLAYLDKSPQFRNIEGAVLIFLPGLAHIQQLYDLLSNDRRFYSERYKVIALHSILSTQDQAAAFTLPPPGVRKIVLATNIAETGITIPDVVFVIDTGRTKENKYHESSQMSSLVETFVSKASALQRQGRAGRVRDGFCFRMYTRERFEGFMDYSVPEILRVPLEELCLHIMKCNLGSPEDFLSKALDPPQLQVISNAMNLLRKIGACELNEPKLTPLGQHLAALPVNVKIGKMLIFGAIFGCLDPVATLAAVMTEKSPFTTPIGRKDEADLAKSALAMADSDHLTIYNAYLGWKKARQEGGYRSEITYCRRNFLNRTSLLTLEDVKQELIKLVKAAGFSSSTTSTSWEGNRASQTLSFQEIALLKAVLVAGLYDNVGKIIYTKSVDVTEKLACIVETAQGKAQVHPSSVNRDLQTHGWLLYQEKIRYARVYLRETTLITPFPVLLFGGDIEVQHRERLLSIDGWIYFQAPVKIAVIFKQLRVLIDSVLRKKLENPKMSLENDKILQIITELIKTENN
UniProt Q76N32: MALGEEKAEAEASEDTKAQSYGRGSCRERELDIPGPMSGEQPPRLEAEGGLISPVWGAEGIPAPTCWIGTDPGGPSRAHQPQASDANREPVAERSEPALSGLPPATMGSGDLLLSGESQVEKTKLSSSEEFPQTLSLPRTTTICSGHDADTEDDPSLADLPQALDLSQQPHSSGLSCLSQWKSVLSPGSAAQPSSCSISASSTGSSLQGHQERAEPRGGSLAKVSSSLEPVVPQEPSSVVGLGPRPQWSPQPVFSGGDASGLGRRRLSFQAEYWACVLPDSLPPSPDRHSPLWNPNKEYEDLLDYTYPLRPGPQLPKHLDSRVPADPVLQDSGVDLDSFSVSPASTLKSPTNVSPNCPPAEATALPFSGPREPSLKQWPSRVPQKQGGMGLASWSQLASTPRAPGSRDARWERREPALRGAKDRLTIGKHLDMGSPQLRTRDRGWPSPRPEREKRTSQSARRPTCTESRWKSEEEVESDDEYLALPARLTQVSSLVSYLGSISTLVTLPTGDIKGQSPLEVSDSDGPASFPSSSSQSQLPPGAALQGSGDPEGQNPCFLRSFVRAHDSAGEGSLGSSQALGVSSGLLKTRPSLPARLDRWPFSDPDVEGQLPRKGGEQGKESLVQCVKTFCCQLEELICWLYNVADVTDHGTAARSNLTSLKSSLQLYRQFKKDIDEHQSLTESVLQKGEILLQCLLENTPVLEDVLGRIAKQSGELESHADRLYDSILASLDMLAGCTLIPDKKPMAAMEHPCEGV
UniProt Q7Z7L8: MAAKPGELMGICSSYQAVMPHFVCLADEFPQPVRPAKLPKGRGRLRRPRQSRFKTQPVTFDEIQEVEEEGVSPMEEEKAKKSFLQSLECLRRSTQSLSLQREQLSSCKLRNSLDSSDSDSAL

compound: CN[C@@H]1C[C@H]2O[C@@](C)([C@@H]1OC)n1c3ccccc3c3c4c(c5c6ccccc6n2c5c31)C(=O)NC4 [staurosporine]; test: log2 fold change of tryptic peptide abundance, ligand vs vehicle (limited proteolysis) (log2 ratio); higher = more trypsin-susceptible (destabilized); conditions: ligand concentration: 20 uM; sample: K562 cleared lysate; digestion: 4 min, 22 C (HT-PELSA RT4min, Orbitrap Astral)

**Q.** How did the log2 fold change turn out when “ZBTB33 (peptide sequence: IITLDTATEIEGLSTGCK, peptide start residue: 415) (UniProt Q86T24)” was run?
**A.** 0.209

**Q.** With “GPRIN1 (peptide sequence: VVPLSLEK, peptide start residue: 710) (UniProt Q7Z2K8)” as the target, how does the log2 fold change read?
**A.** 0.322

**Q.** With “HUWE1 (peptide sequence: EYNLEQQRR, peptide start residue: 3647) (UniProt Q7Z6Z7)” as the target, how does the log2 fold change read?
**A.** 1.32

**Q.** With “UniProt Q7L5D6 (peptide sequence: EQNYCESR, peptide start residue: 156)” as the target, how does the log2 fold change read?
**A.** 0.612

**Q.** With “UniProt Q7L8W6 (peptide sequence: VENVCKR, peptide start residue: 126)” as the target, how does the log2 fold change read?
**A.** -0.303

**Q.** Which log2 fold change does the source give for “ZNF771 (peptide sequence: THTGERPYPCAECGR, peptide start residue: 252) (UniProt Q7L3S4)” here?
**A.** -0.277

**Q.** For “CHMP1B (peptide sequence: IHAENAIR, peptide start residue: 50) (UniProt Q7LBR1)”, which log2 fold change is on record?
**A.** 0.124

**Q.** With “UniProt Q7Z4I7 (peptide sequence: HLCRPCHNR, peptide start residue: 116)” as the target, how does the log2 fold change read?
**A.** 0.842

**Q.** How did the log2 fold change turn out when “BCDIN3D (peptide sequence: LLCCDIDPVLVKR, peptide start residue: 106) (UniProt Q7Z5W3)” was run?
**A.** 0.28

**Q.** How did the log2 fold change turn out when “UniProt Q86UQ0 (peptide sequence: GFIVESVLR, peptide start residue: 284)” was run?
**A.** -0.315

**Q.** Which log2 fold change does the source give for “ZNF574 (peptide sequence: RIHTGERPYPCPDCGK, peptide start residue: 758) (UniProt Q6ZN55)” here?
**A.** -0.323

**Q.** How did the log2 fold change turn out when “GLCCI1 (peptide sequence: RSPESHR, peptide start residue: 130) (UniProt Q86VQ1)” was run?
**A.** -0.115

**Q.** “FASTKD5 (peptide sequence: QIGEIAPQR, peptide start residue: 376) (UniProt Q7L8L6)” was tested. Which log2 fold change did it give?
**A.** 0.431

**Q.** For “UniProt Q7RTT6 (peptide sequence: YFSKEEWEK, peptide start residue: 31)”, which log2 fold change is on record?
**A.** 0.119

**Q.** With “HOOK3 (peptide sequence: KKEEEMK, peptide start residue: 592) (UniProt Q86VS8)” as the target, how does the log2 fold change read?
**A.** 0.392

**Q.** Which log2 fold change does the source give for “KCTD20 (peptide sequence: GSCFQSGNKR, peptide start residue: 80) (UniProt Q7Z5Y7)” here?
**A.** -0.419

**Q.** How did the log2 fold change turn out when “RRM2B (peptide sequence: SNEEPLLR, peptide start residue: 29) (UniProt Q7LG56)” was run?
**A.** 0.255

**Q.** Which log2 fold change does the source give for “UniProt Q6ZSB9 (peptide sequence: TLDESHPHASPSVNR, peptide start residue: 169)” here?
**A.** -0.253

**Q.** “PIWIL4 (peptide sequence: QLIGLIVLTR, peptide start residue: 296) (UniProt Q7Z3Z4)” was tested. Which log2 fold change did it give?
**A.** 0.236

**Q.** “TTC21B (peptide sequence: LSIFLELIDVHR, peptide start residue: 617) (UniProt Q7Z4L5)” was tested. Which log2 fold change did it give?
**A.** 0.701

**Q.** With “UNC13D (peptide sequence: WFQPAIPSWLQK, peptide start residue: 588) (UniProt Q70J99)” as the target, how does the log2 fold change read?
**A.** -0.219

**Q.** For “NOL8 (peptide sequence: NSSPGEASLLEK, peptide start residue: 1097) (UniProt Q76FK4)”, which log2 fold change is on record?
**A.** -0.196

**Q.** For “CDC37L1 (peptide sequence: EKMCLWSTDAISK, peptide start residue: 121) (UniProt Q7L3B6)”, which log2 fold change is on record?
**A.** -0.57

**Q.** For “UniProt Q86T90 (peptide sequence: LTMSLSELGAAR, peptide start residue: 176)”, which log2 fold change is on record?
**A.** 0.0667

**Q.** “PARS2 (peptide sequence: QLPFLLYQVTRK, peptide start residue: 176) (UniProt Q7L3T8)” was tested. Which log2 fold change did it give?
**A.** -0.639

**Q.** How did the log2 fold change turn out when “UniProt Q7Z7B0 (peptide sequence: KEDDVMASGTVKR, peptide start residue: 45)” was run?
**A.** -0.404

**Q.** For “CCDC91 (peptide sequence: NKEALVSAAKLEK, peptide start residue: 299) (UniProt Q7Z6B0)”, which log2 fold change is on record?
**A.** 0.806

**Q.** How did the log2 fold change turn out when “UniProt Q7Z7F0 (peptide sequence: GKGSGCIEPASGR, peptide start residue: 275)” was run?
**A.** 0.331

**Q.** How did the log2 fold change turn out when “CROCCP2 (peptide sequence: LRAEEASLQDSLSK, peptide start residue: 727) (UniProt Q86T23)” was run?
**A.** 0.151

**Q.** Which log2 fold change does the source give for “ANKS3 (peptide sequence: EIGITLFGPK, peptide start residue: 466) (UniProt Q6ZW76)” here?
**A.** -0.191

**Q.** How did the log2 fold change turn out when “COMMD6 (peptide sequence: LGMAVSSDTCR, peptide start residue: 26) (UniProt Q7Z4G1)” was run?
**A.** 0.0216

**Q.** Which log2 fold change does the source give for “DHX29 (peptide sequence: KEPHDVR, peptide start residue: 359) (UniProt Q7Z478)” here?
**A.** 0.426

**Q.** “POGZ (peptide sequence: YLSFEAEEK, peptide start residue: 1022) (UniProt Q7Z3K3)” was tested. Which log2 fold change did it give?
**A.** -0.341

**Q.** With “CEP68 (peptide sequence: AHQPQASDANREPVAER, peptide start residue: 78) (UniProt Q76N32)” as the target, how does the log2 fold change read?
**A.** -0.0618

**Q.** For “UniProt Q7RTT3 (peptide sequence: KYEAMTK, peptide start residue: 54)”, which log2 fold change is on record?
**A.** 0.576

**Q.** Which log2 fold change does the source give for “UBE3B (peptide sequence: VFDPALNLFK, peptide start residue: 742) (UniProt Q7Z3V4)” here?
**A.** -0.207

**Q.** Which log2 fold change does the source give for “C11orf96 (peptide sequence: SFLQSLECLRR, peptide start residue: 395) (UniProt Q7Z7L8)” here?
**A.** -0.148
